Results from US20050165000A1, “Pharmaceutical compositions containing an hiv integrase inhibitor and a nonionic surfactant” (priority 2002, published 2005).
At least one read-out could not be matched to a standard name with certainty.

Test: oral bioavailability when administered to animals
Type: in vivo
Method: Since the physiological pH typically lies within this range, the rate of the drug's dissolution in and absorption from the gastrointestinal tract can be low, particularly when the drug is administered in a solid dosage form. The same or similar formulation difficulties can be expected for other 8-hydroxy-1,6-naphthyridine-7-carboxamides of this class and their salts having low solubility at physiological pH's.
Particle size can affect the oral bioavailability of the active drug substances employed in the pharmaceutical compositions of the invention. […] Accordingly, embodiments of the present invention include each of the pharmaceutical compositions defined and described above, wherein the active drug substance (i.e., Compound I or II or A or B or a pharmaceutically acceptable salt thereof) employed therein has a mean particle size of from about 1 to about 20 μm, or from about 1 to about 10 μm (e.g., from about 3 to about 6 μm wherein 90% of the particles are less than 10 μm).

O=C(NCc1ccc(F)cc1)c1nc(N2CCCCS2(=O)=O)c2cccnc2c1[O-].[Na+] [Compound A sodium salt, 5-(N-1,4-butanesultam)-N-(4-fluorobenzyl)-8-hydroxy-1,6-naphthyridine-7-carboxamide sodium salt]
oral bioavailability relative to the unmilled salt of mean particle size about 40 μm (milled to mean particle size about 3 μm (90% less than 5 μm)): improved oral bioavailabilities
oral bioavailability relative to the unmilled salt of mean particle size about 40 μm (milled to mean particle size about 6 μm (90% less than 10 μm)): improved oral bioavailabilities
